Binding data for two substances are collected here from publication PMC8397740.

Protein sequences, listed by entry. Tags and fused reporters are not part of them. Lines headed by an entry give the natural chain unless they say otherwise; changes in a name come on top.
UniProt P63104: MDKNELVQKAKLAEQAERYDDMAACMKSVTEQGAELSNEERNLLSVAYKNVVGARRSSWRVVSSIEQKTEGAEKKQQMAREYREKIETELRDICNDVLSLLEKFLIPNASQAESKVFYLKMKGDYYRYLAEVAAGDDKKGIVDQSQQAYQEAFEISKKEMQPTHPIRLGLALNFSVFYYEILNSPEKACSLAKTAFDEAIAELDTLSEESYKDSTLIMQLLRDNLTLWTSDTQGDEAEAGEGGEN
UniProt Q9Y4D1: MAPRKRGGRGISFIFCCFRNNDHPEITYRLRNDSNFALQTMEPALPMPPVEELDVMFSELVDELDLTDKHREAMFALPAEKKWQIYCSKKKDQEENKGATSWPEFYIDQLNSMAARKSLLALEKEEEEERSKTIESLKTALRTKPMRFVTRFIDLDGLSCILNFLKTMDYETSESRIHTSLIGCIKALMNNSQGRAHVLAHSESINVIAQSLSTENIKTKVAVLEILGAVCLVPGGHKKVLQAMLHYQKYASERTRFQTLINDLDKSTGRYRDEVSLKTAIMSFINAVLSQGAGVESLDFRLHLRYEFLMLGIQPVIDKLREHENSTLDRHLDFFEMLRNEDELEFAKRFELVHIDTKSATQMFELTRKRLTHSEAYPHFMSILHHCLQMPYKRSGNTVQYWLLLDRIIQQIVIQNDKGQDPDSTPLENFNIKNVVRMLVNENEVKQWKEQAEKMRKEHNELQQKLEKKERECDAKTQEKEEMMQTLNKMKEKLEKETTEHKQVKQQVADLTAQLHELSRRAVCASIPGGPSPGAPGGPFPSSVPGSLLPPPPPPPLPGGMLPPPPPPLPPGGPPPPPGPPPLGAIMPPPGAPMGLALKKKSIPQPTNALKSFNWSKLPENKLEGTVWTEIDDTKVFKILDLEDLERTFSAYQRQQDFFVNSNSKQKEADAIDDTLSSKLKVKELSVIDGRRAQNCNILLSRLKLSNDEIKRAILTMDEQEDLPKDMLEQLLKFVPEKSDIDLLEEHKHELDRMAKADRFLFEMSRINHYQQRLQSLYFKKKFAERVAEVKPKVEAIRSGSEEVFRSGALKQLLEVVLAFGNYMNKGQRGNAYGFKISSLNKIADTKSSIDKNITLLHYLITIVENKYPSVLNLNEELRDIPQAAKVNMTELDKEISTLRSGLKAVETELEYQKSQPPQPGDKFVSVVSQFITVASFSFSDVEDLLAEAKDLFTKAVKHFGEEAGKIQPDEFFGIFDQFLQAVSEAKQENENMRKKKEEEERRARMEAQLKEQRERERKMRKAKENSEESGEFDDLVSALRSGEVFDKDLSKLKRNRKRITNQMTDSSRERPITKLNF

For test [1], the target named is GFP-tagged YWHAZ (tyrosine 3-monooxygenase/tryptophan 5-monooxygenase activation protein zeta) (UniProt P63104). In words: co-IP; MCF-7 and MDA-MB-231 cells expressing FLAG-DAAM1 and GFP-YWHAZ, lysed in NP-40 buffer; anti-FLAG or anti-GFP antibody (normal rabbit IgG as control) at 4 °C overnight, protein A/G agarose beads; immunoblotting. (A western blot detects proteins with antibodies after separation by electrophoresis.)

Another test addresses FLAG-DAAM1-Y652F (UniProt Q9Y4D1). In words: co-IP; DAAM1-Y652F and full-length YWHAZ constructs transfected (Fig. S1); cells and precipitating antibody not stated.
Test [2] deals with FLAG-full-DAAM1 (Dishevelled-associated activator of morphogenesis 1) (UniProt Q9Y4D1). Kind of test: co-IP; MCF-7 and MDA-MB-231 cells expressing FLAG-DAAM1 and GFP-YWHAZ, lysed in NP-40 buffer; anti-FLAG or anti-GFP antibody (normal rabbit IgG as control) at 4 °C overnight, protein A/G agarose beads; immunoblotting.

Results are given in words; binding and its absence hold for the method and conditions named. Binding seen in cells or lysates may run through a third protein. Some binding calls cover weakened binding; strength is not graded here.

For the substance “FLAG-full-DAAM1 (Dishevelled-associated activator of morphogenesis 1) (from UniProt Q9Y4D1 1-1078)”, in test [1], the binding result is listed as “binds”.
“GFP-tagged YWHAZ (tyrosine 3-monooxygenase/tryptophan 5-monooxygenase activation protein zeta) (from UniProt P63104 1-245)”: the binding result (in the test with FLAG-DAAM1-Y652F; in test [2]) was “binds” throughout.
